From doi:10.1101/2025.07.08.663636 come the findings set out here.

Amino acid sequences for entries named in this document (tags omitted). Residues count along the entry.
UniProt P11021, 25-407: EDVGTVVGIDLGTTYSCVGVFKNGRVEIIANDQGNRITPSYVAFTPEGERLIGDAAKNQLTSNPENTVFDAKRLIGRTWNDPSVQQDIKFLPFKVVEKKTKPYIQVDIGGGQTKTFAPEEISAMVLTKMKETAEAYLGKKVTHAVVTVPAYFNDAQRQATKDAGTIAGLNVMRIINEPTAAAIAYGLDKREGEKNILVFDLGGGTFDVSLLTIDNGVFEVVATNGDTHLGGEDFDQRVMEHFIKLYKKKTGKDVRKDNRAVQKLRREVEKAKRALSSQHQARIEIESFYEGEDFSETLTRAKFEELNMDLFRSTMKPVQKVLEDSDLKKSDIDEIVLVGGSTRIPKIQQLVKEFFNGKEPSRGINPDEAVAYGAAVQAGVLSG
UniProt P11021, 25-654: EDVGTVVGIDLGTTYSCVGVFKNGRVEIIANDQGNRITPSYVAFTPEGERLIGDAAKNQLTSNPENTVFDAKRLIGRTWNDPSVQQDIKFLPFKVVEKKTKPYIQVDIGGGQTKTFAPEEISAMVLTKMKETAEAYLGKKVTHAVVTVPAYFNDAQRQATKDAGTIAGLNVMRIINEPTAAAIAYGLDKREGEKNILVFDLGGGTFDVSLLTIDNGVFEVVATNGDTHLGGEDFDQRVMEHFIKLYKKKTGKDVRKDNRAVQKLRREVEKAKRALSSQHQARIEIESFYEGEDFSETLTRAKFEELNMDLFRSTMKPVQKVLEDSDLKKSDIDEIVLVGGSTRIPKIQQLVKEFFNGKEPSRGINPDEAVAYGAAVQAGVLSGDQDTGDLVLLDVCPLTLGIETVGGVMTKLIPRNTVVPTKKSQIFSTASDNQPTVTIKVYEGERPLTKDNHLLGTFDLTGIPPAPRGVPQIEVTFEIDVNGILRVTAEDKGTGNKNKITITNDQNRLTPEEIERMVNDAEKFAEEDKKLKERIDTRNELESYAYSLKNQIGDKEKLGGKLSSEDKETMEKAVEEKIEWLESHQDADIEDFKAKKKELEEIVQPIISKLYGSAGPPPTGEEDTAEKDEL
UniProt P11021, 26-405: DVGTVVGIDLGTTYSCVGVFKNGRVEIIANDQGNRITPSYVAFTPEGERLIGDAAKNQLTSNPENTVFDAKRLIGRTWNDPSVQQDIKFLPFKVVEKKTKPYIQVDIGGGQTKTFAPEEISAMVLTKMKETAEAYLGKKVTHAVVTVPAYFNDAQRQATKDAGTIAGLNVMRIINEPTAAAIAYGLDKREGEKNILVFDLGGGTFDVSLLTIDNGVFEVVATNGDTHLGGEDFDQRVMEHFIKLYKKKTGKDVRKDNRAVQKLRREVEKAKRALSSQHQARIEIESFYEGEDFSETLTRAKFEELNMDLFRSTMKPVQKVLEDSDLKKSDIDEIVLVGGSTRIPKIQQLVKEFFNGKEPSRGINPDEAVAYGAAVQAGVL
UniProt P11021, 19-654: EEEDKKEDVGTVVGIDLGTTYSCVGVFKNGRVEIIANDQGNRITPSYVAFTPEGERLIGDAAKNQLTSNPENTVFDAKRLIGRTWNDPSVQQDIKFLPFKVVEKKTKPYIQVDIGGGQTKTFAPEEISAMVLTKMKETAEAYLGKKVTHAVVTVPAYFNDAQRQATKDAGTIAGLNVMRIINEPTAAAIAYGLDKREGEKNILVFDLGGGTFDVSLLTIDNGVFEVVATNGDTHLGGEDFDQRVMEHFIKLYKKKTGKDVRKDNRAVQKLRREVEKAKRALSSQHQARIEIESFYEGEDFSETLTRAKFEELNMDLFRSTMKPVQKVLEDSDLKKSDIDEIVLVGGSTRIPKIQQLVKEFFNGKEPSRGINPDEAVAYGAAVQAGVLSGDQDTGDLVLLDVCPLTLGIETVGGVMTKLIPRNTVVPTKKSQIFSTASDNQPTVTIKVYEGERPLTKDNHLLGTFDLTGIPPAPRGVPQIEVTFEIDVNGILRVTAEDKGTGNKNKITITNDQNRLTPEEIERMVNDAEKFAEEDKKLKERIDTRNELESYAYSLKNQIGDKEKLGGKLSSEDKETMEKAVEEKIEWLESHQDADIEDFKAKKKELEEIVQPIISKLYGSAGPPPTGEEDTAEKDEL
UniProt P11021, 418-654: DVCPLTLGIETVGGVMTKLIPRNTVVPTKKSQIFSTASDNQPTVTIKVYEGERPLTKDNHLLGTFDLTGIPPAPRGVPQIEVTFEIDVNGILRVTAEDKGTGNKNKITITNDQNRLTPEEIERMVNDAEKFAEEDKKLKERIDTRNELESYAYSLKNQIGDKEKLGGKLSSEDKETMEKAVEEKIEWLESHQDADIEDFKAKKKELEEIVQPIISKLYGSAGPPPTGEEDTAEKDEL
UniProt Q49AH0, 25-187: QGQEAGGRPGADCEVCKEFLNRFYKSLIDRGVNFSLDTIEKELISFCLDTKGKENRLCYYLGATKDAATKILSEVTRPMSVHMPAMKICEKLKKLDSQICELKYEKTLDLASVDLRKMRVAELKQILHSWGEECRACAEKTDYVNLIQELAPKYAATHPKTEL

Read-outs that look alike come from different tables or passages of the source. No constants are given. Whether binding was seen depends on the method and setting. For some assays here: In cells and extracts the contact can be indirect. Some results given as binding are weak or reduced against the parent protein; the word gives no strength.

The target of test [1] is BiP (Grp78) split-Venus BiFC fusion (pEZY BiFC Grp78-NV(CV)) (human) (UniProt P11021). Briefly: split reporter.
In test [2] the target is BiP NBD (human BiP nucleotide binding domain, aa 26-405, from 6His-Smt3-BiP NBD) (human) (UniProt P11021). Briefly: SEC.
The target in test [3] is 6His-3C-BiP FL (human full-length BiP, aa 25-654) (human) (UniProt P11021). The experiment in a line: MST.
Test [4] addresses BiP NBD (human BiP nucleotide binding domain, aa 26-405, from 6His-Smt3-BiP NBD) (human) (UniProt P11021). Briefly: MST.
Test [5] deals with 6His-3C-BiP FL (human full-length BiP, aa 25-654) (human) (UniProt P11021). Briefly: pull-down.
Test [6] deals with 6His-3C-BiP NBD (human BiP nucleotide binding domain, aa 25-407) (human) (UniProt P11021). The experiment in a line: pull-down.
In test [7] the target is 6His-3C-BiP SBD (human BiP substrate binding domain, aa 418-654) (human) (UniProt P11021). Briefly: pull-down.
The target of test [8] is 6His-3C-BiP NBD (human BiP nucleotide binding domain, aa 25-407) (human) (UniProt P11021). The experiment in a line: pull-down. This is another data set of the same source.

Consider “CDNF (wild type) split-Venus BiFC fusion (pEZY BiFC pre-CDNF-NV(CV)) (from UniProt Q49AH0 25-187)”, for which the binding result in test [1] is given as “binds”.
Regarding “CDNF (wild type) purified from CHO cells (from UniProt Q49AH0 25-187)”, the binding entry in test [2] is “binds”; in test [3], “binds”; in test [4], “binds”; in test [5], “binds”; in test [6] it was “binds”; in test [7] it was “no binding (tested: 100 µM CDNF)”. For the same substance, the binding result in test [8] is “binds”.
